Assay results published in patent publication EP2844225B1, “AVERMECTIN POUR-ON FORMULATION WITH REDUCED WITHDRAWAL TIME” (Norbrook Laboratories Limited, priority 2012, dated 2013).
Where “and” joins values, the source holds several entries; their conditions need not be identical. Equal values may be shown once. This continues a long series; more values of the same kind are listed elsewhere.

Experiment: Plasma levels of eprinomectin in cattle after topical pour-on administration (HPLC with fluorescence detection)
Details: 0.5 mg/kg bodyweight, individual animals
Method: Twenty beef cattle of mixed gender and aged approximately between 10-20 months at the time of selection were used to determine the levels of eprinomectin in plasma following topical administration of the composition set forth in Table 1 below at a dose rate of 0.5mg/kg of eprinomectin.
The composition was administered along the midline of the back in a narrow strip between the withers and the tailhead using 60 ml syringes graduated to 1 ml. […] Blood samples were collected from each animal by venipuncture from the jugular vein using suitably labelled 9ml heparinised vacutainers. Following collection, samples were placed on ice protected from light under black cover prior to centrifugation. After centrifugation at 4500 revolutions per minute (RPM) for 5 minutes, the plasma was subsampled into 3 amber cryovials (-1ml plasma/cryovial). Plasma samples were stored at <-20°C until assayed. All samples were assayed for the determination of eprinomectin content, measured as eprinomectin B 1 a (hereafter referred to as eprinomectin) by HPLC.

CC[C@H](C)[C@H]1O[C@]2(C=C[C@@H]1C)C[C@@H]1C[C@@H](C/C=C(\C)[C@@H](O[C@H]3C[C@H](OC)[C@@H](O[C@H]4C[C@H](OC)[C@H](NC(C)=O)[C@H](C)O4)[C@H](C)O3)[C@@H](C)/C=C/C=C3\CO[C@@H]4[C@H](O)C(C)=C[C@@H](C(=O)O1)[C@]34O)O2 [eprinomectin]
Plasma concentration of eprinomectin (time point 24 hrs, 1440 min): 9.06 ng/mL and 13.3 ng/mL and 7.29 ng/mL and 15.6 ng/mL and 13.6 ng/mL and 12.7 ng/mL and 20.1 ng/mL and 19.4 ng/mL and 18.7 ng/mL and 9.63 ng/mL and 16.5 ng/mL and 24.6 ng/mL and 14.1 ng/mL
Plasma concentration of eprinomectin (time point 48 hrs, 2880 min): 11.1 ng/mL and 43.0 ng/mL and 28.9 ng/mL and 26.6 ng/mL and 17.8 ng/mL and 39.4 ng/mL and 30.0 ng/mL and 32.0 ng/mL and 23.3 ng/mL and 39.8 ng/mL and 53.8 ng/mL and 37.6 ng/mL
Plasma concentration of eprinomectin (time point 72 hrs, 4320 min): 22.8 ng/ml (2×) and 47.4 ng/ml and 35.4 ng/ml and 37.0 ng/ml and 23.8 ng/ml and 54.6 ng/ml and 41.1 ng/ml and 35.9 ng/ml and 32.1 ng/ml and 51.1 ng/ml and 73.9 ng/ml and 52.8 ng/ml
Plasma concentration of eprinomectin (time point 96 hrs, 5760 min): 15.5 ng/mL and 25.7 ng/mL and 53.3 ng/mL and 23.3 ng/mL and 40.7 ng/mL and 37.2 ng/mL and 24.4 ng/mL and 63.5 ng/mL and 60.4 ng/mL and 32.1 ng/mL and 34.9 ng/mL and 53.2 ng/mL and 69.2 ng/mL and 72.2 ng/mL
Plasma concentration of eprinomectin (time point 120 hrs, 7200 min): 18.5 ng/ml and 17.9 ng/ml and 56.5 ng/ml and 24.5 ng/ml (2×) and 46.8 ng/ml and 38.6 ng/ml and 53.4 ng/ml (2×) and 52.1 ng/ml and 25.1 ng/ml and 27.9 ng/ml and 64.2 ng/ml and 63.0 ng/ml
Plasma concentration of eprinomectin (time point 144 hrs, 8640 min): 20.8 ng/mL and 22.3 ng/mL and 53.7 ng/mL and 21.2 ng/mL and 37.6 ng/mL and 30.3 ng/mL and 22.6 ng/mL and 47.1 ng/mL and 46.5 ng/mL and 15.4 ng/mL and 26.0 ng/mL and 49.9 ng/mL and 50.0 ng/mL and 34.5 ng/mL
Plasma concentration of eprinomectin (time point 192 hrs, 11520 min): 18.8 ng/mL and 15.7 ng/mL and 43.6 ng/mL and 14.1 ng/mL and 20.8 ng/mL and 19.3 ng/mL and 18.9 ng/mL and 28.0 ng/mL and 25.5 ng/mL and 8.63 ng/mL and 15.1 ng/mL and 29.6 ng/mL and 28.2 ng/mL and 17.4 ng/mL
Plasma concentration of eprinomectin (time point 216 hrs, 12960 min): 17.4 ng/mL and 33.1 ng/mL and 14.9 ng/mL and 23.5 ng/mL and 19.8 ng/mL and 18.2 ng/mL and 22.2 ng/mL and 18.0 ng/mL and 6.34 ng/mL and 13.3 ng/mL and 21.0 ng/mL and 21.6 ng/mL and 13.1 ng/mL
Plasma concentration of eprinomectin (time point 240 hrs, 14400 min): 16.6 ng/ml and 27.8 ng/ml and 8.37 ng/ml and 18.5 ng/ml and 13.7 ng/ml and 15.2 ng/ml (3×) and 11.5 ng/ml and 4.09 ng/ml and 9.22 ng/ml and 17.4 ng/ml
Plasma concentration of eprinomectin (time point 312 hrs, 18720 min): 5.95 ng/mL and 10.9 ng/mL and 4.10 ng/mL and 7.60 ng/mL and 5.34 ng/mL and 6.51 ng/mL and 7.51 ng/mL and 4.92 ng/mL and 2.08 ng/mL and 4.63 ng/mL and 6.64 ng/mL and 7.96 ng/mL and 4.02 ng/mL
Plasma concentration of eprinomectin (time point 336 hrs, 20160 min): 5.69 ng/ml (2×) and 9.42 ng/ml and 3.05 ng/ml and 3.96 ng/ml and 6.70 ng/ml and 6.80 ng/ml and 3.62 ng/ml and 1.53 ng/ml and 3.09 ng/ml and 5.35 ng/ml and 5.81 ng/ml and 3.02 ng/ml
Plasma concentration of eprinomectin (time point 360 hrs, 21600 min): 3.91 ng/mL and 6.58 ng/mL and 3.56 ng/mL and 4.88 ng/mL and 2.81 ng/mL and 4.44 ng/mL and 4.43 ng/mL and 2.76 ng/mL and 1.30 ng/mL and 2.34 ng/mL and 3.87 ng/mL and 4.57 ng/mL and 2.17 ng/mL
Plasma concentration of eprinomectin (time point 408 hrs, 24480 min): 2.59 ng/mL and 5.28 ng/mL and 2.95 ng/mL and 3.51 ng/mL and 2.20 ng/mL and 3.58 ng/mL and 2.54 ng/mL and 2.03 ng/mL and <1.00 ng/mL and 1.62 ng/mL and 2.23 ng/mL and 2.44 ng/mL and 2.41 ng/mL
